# Source: the supplement of paper PMC4749390
# Structures can show the parent of a compound that is named as a salt. The list shows a part of the results. This data set is noisy: repeats of one test often differ as much as different tests do.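 Wild-type human LRH-1, a heavily sumoylated nuclear receptor, is tetracycline-inducible in stable JEG3 cells. RT-qPCR measured SUMO-sensitive APOC3 and MUC1 transcripts, which rise with SUMO-less LRH-1 or UBC9 knockdown, versus TBP and DMSO controls. Robust Z-scores beyond ±2 flagged primary hits, followed by toxicity and TBP filtering.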
# System: JEG3 expressing hLRH-1
# Test: APOC3 transcript change (ddCt vs TBP and DMSO), Z-score over library; higher = higher APOC3 expression
# Conditions: 10 µM; time (hr): 24
row,SMILES,APOC3 transcript change (Z-score)
1,CN(C)CC/C=C1\c2ccccc2Sc2ccc(Cl)cc21 [chlorprothixene hydrochloride],-0.17
2,CC(=O)[C@H]1CC[C@H]2[C@@H]3CC=C4C[C@@H](OC(=O)CCC(=O)O)CC[C@]4(C)[C@H]3CC[C@]12C [pregnenolone succinate],0.327
3,NC(=O)NO [hydroxyurea],1.65
4,Nc1cc(-c2ccncc2)cnc1O [amrinone],0.622
5,NCCC[C@H](N)CC(=O)N[C@H]1CNC(=O)[C@H]([C@H]2C[C@H](O)N=C(N)N2)NC(=O)/C(=C/NC(N)=O)NC(=O)[C@H](CO)NC(=O)[C@H](CO)NC1=O [viomycin sulfate],0.422
6,CN1CCN(C2=Nc3cc(Cl)ccc3Nc3ccccc32)CC1 [Clozapine],-0.271
7,CN/C(=C\[N+](=O)[O-])NCCSCc1csc(CN(C)C)n1 [nizatidine],-0.856
8,CCCCOC(=O)c1ccc(O)cc1 [butyl paraben],-0.209
9,C#C[C@]1(OC(C)=O)CC[C@H]2[C@@H]3CCC4=CC(=O)CC[C@@H]4[C@H]3CC[C@@]21C [norethindrone acetate],0.582
10,N=C(N)NS(=O)(=O)c1ccc(N)cc1 [sulfaguanidine],-0.423
11,Sc1[nH]cnc2ncnc1-2 [mercaptopurine],0.803
12,O=C(c1ccccc1)c1ccc2n1CCC2C(=O)O (stereo unspecified) [ketorolac tromethamine],1.89
13,CC(=O)OCC(=O)[C@@]12OC3(CCCC3)O[C@@H]1C[C@H]1[C@@H]3CCC4=CC(=O)C=C[C@]4(C)[C@@]3(F)[C@@H](O)C[C@@]12C [amcinonide],1.61
14,CCC(=O)OCC(=O)C1(OC(=O)CC)C(C)CC2C3CCC4=CC(=O)C=CC4(C)C3(Cl)C(O)CC21C (stereo unspecified) [beclomethasone dipropionate],0.997
15,CO/C(O)=C1/C(C)=NC(C)=C(C(=O)OCCN2CCN(C(c3ccccc3)c3ccccc3)CC2)C1c1cccc([N+](=O)[O-])c1 (stereo unspecified) [manidipine hydrochloride],0.332
16,Cc1ncc([N+](=O)[O-])n1CC(C)O (stereo unspecified) [secnidazole],0.323
17,NC(=O)c1ccc([N+](=O)[O-])cc1Cl [aklomide],-0.0538
18,CC1COc2c(N3CCN(C)CC3)c(F)cc3c(=O)c(C(=O)O)cn1c23 (stereo unspecified) [ofloxacin],-0.505
19,CN1CCN(c2cc3c(cc2F)c(=O)c(C(=O)O)cn3-c2ccc(F)cc2)CC1 [difloxacin hydrochloride],0.696
20,CCCC(C(=O)OCCN(CC)CC)(c1ccccc1)c1ccccc1 [SKF-525A hydrochloride],0.408
21,NC(=O)CC[C@H](N)C(=O)O [L-Glutamine],0.294
22,COc1c2occc2c(OC)c2c(=O)cc(C)oc12 [khellin],-0.103
23,NC(=O)C1CCCN1C(=O)C(Cc1c[nH]cn1)NC(=O)C1CCC(=O)N1 (stereo unspecified) [protirelin],0.635
24,CN1CCC[C@H]1c1cccnc1 [nicotine ditartrate],0.358

# Quoted from above for reference:
row,SMILES,APOC3 transcript change (Z-score)
6,CN1CCN(C2=Nc3cc(Cl)ccc3Nc3ccccc32)CC1 [Clozapine],-0.271
7,CN/C(=C\[N+](=O)[O-])NCCSCc1csc(CN(C)C)n1 [nizatidine],-0.856
8,CCCCOC(=O)c1ccc(O)cc1 [butyl paraben],-0.209

# (next part)

row,SMILES,APOC3 transcript change (Z-score)
1,CC[C@H](C)C(=O)O[C@H]1C[C@H](O)C=C2C=C[C@H](C)[C@H](CC[C@@H](O)C[C@@H](O)CC(=O)O)[C@H]21 [pravastatin sodium],0.185
2,Oc1[nH]cnc2nncc1-2 [Allopurinol],-0.458
3,C=C(NC(=O)C(=C)NC(=O)c1csc(C2=NC3c4csc(n4)C4NC(=O)c5csc(n5)C(C(C)(O)C(C)O)NC(=O)C5CSC(=N5)/C(=C\C)NC(=O)C(C(C)O)NC(=O)c5csc(n5)C3(CC2)NC(=O)C(C)NC(=O)C(=C)NC(=O)C(C)NC(=O)C(C(C)CC)NC2C=Cc3c(C(C)O)cc(nc3C2O)C(=O)OC4C)n1)C(N)=O (stereo unspecified) [thiostrepton],-0.206
4,COc1ccc(C2C(=O)c3ccccc3C2=O)cc1 [anisindione],0.221
5,OCC(S)CS (stereo unspecified) [dimercaptopropanol],-0.911
6,[Li+] [lithium citrate],-0.442
7,COc1ccc2nc3cc(Cl)ccc3c(Nc3cc(CN4CCCC4)c(O)c(CN4CCCC4)c3)c2n1 [pyronaridine tetraphosphate],-0.117
8,NC(=O)C1(N2CCCCC2)CCN(CCCC(=O)c2ccc(F)cc2)CC1 [pipamperone],-0.109
9,C=C[C@@]1(C)CC(=O)[C@@]2(O)[C@](C)(O1)[C@@H](OC(C)=O)[C@@H](O)C1C(C)(C)CC[C@H](O)[C@@]12C (stereo partly specified) [colforsin],1.24
10,CCC(=O)OCC(=O)[C@@]1(OC(=O)CC)[C@H](C)CC2C3C([C@@H](O)C[C@@]21C)[C@@]1(C)C=CC(=O)C=C1C[C@H]3Cl (stereo partly specified) [alclometazone dipropionate],0.834
11,O=S(=O)(O)CCCS(=O)(=O)O [eprodisate disodium],0.309
12,NCc1ccccc1CC(=O)NC1C(=O)N2C(C(=O)O)=C(CSc3nnnn3CC(=O)O)CSC12 (stereo unspecified) [ceforanide],0.101
13,COc1cc(NS(=O)(=O)c2ccc(N)cc2)nc(OC)n1 [sulfadimethoxine],0.251
14,CC(=O)OCC(=O)[C@@]1(O)[C@H](OC(C)=O)C[C@H]2[C@@H]3CCC4=CC(=O)C=C[C@]4(C)[C@@]3(F)[C@@H](O)C[C@@]21C [triamcinolone diacetate],0.106
15,CN1C2CCC1CC(OC(=O)c1c[nH]c3ccccc13)C2 (stereo unspecified) [3-Tropanyl-indole-3-carboxylate hydrochloride],0.445
16,CC(C)c1nc(N(C)S(C)(=O)=O)nc(-c2ccc(F)cc2)c1/C=C/[C@@H](O)C[C@@H](O)CC(=O)O [rosuvastatin],-0.0135
17,CCCCNc1ccc(C(=O)OCCN(C)C)cc1 [Tetracaine hydrochloride],-0.864
18,O=C1OC2(c3ccc(O)cc3Oc3cc(O)ccc32)c2ccccc21 [fluorescein],0.157
19,O=c1[nH]c(=O)n([C@H]2C[C@H](O)[C@@H](CO)O2)cc1C(F)(F)F [trifluridine],4.01
20,Cc1cc(C(C)(C)C)cc(C)c1CC1=NCCN1 [xylometazoline hydrochloride],-0.162
21,CC1(C)S[C@@H]2[C@H](NC(=O)COc3ccccc3)C(=O)N2[C@H]1C(=O)O [penicillin v potassium],-0.6
22,CCCC(=O)O[C@]1(C(=O)CO)CC[C@H]2[C@@H]3CCC4=CC(=O)CC[C@]4(C)[C@H]3[C@@H](O)C[C@@]21C [hydrocortisone butyrate],0.569
23,N=C(N)NC(=O)Cc1c(Cl)cccc1Cl [guanfacine hydrochloride],-0.428
24,CCC1OC(=O)[C@H](C)C(=O)[C@H](C)[C@@H](OC2O[C@H](C)C[C@H](N(C)C)[C@H]2O)[C@](C)(OC)C[C@@H](C)C(=O)[C@@H](C)[C@@H]2N(CCCCn3cnc(-c4cccnc4)c3)C(=O)O[C@]12C (stereo partly specified) [telithromycin],-0.0279

row,SMILES,APOC3 transcript change (Z-score)
1,CCCOc1ccccc1-c1nc(O)c2[nH]nnc2n1 [Zaprinast],-0.61
2,CC1=C(C/C=C(\C)CCC[C@H](C)CCC[C@H](C)CCCC(C)C)C(=O)c2ccccc2C1=O [phytonadione],0.571
3,CN(Cc1cnc2nc(N)nc(N)c2n1)c1ccc(C(=O)NC(CCC(=O)O)C(=O)O)cc1 (racemic) [methotrexate(+/-)],2.02
4,C[C@H]1O[C@@H](O[C@H]2[C@@H](O)C[C@H](O[C@H]3[C@@H](O)C[C@H](O[C@H]4CC[C@@]5(C)[C@H](CC[C@@H]6[C@@H]5CC[C@]5(C)[C@@H](C7=CC(=O)OC7)CC[C@]65O)C4)O[C@@H]3C)O[C@@H]2C)C[C@H](O)[C@@H]1O [digitoxin],-7.04
5,CCCCCCCCNC(C)C(O)c1ccc(SC(C)C)cc1 (stereo unspecified) [suloctidil],-1.09
6,Cn1c([N+](=O)[O-])cnc1COC(N)=O [ronidazole],0.175
7,COc1ccc(CN(CCN(C)C)c2ncccn2)cc1 [thonzylamine hydrochloride],-1.63
8,NCC(=O)CCC(=O)O [aminolevulinic acid hydrochloride],1.12
9,C=CCNC(N)=S [allylthiourea],-0.589
10,Cc1ccc(C)c(OCCCC(C)(C)C(=O)O)c1 [gemfibrozil],-0.808
11,NC(=O)N1c2ccccc2CC(=O)c2ccccc21 [oxcarbazepine],-0.0849
12,C/C=C/C(=O)N(CC)c1ccccc1C [crotamiton],-0.171
13,CC1(C)[C@@H](O)CC[C@]2(C)[C@H]3C(=O)C=C4[C@@H]5C[C@@](C)(C(=O)O)CC[C@]5(C)CC[C@@]4(C)[C@]3(C)CC[C@@H]12 [enoxolone],-0.146
14,C[C@]12CCC(=O)C=C1C=C[C@@H]1[C@@H]2CC[C@@]2(C)[C@H]1CC[C@@]21CCC(=O)O1 [canrenone],-0.555
15,NCCS [Cysteamine hydrochloride],-0.118
16,CC(C)(C)NCC(O)COc1cccc2c1CCCC2=O (stereo unspecified) [levobunolol hydrochloride],0.782
17,CN(C)CCC(c1ccccc1)c1ccccn1 (stereo unspecified) [pheniramine maleate],0.54
18,CC(=O)Oc1cccc(C(=O)O)c1OC(C)=O [dipyrocetyl],-0.643
19,CC(C)(Sc1cc(C(C)(C)C)c(O)c(C(C)(C)C)c1)Sc1cc(C(C)(C)C)c(O)c(C(C)(C)C)c1 [probucol],0.77
20,CN(C)CCOC(=O)C(c1ccccc1)C1(O)CCCC1 (stereo unspecified) [cyclopentolate hydrochloride],0.622
21,NCCc1cc[nH]n1 [betazole hydrochloride],0.139
22,Nc1ccc(C(=O)NCC(=O)O)cc1 [aminohippuric acid],-0.113
23,CC(=O)Nc1ccc(S(=O)(=O)Nc2ccc([N+](=O)[O-])cc2)cc1 [sulfanitran],-0.697
